Experimental data reported in PMC10294715.

Sequences of proteins named here, by UniProt entry; tags and fusion partners are left off.
UniProt D3Z6P9, entry or part of it: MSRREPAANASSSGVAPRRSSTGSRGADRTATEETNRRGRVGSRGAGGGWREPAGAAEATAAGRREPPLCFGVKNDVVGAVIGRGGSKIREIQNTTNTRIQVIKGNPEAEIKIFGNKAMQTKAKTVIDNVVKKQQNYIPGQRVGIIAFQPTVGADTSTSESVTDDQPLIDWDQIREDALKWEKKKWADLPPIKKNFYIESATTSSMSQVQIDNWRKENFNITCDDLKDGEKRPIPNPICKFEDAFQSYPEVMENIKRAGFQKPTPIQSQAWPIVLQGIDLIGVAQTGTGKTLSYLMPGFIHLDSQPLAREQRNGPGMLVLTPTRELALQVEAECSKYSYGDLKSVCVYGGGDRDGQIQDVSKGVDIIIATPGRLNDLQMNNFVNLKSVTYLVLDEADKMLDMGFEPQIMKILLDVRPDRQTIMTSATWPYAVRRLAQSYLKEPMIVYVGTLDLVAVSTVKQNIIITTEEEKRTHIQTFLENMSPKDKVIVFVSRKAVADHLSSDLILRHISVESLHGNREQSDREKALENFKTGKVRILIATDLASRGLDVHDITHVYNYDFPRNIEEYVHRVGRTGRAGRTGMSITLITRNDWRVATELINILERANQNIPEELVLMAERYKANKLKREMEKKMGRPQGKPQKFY

target: DDX43 (Mus musculus) (UniProt D3Z6P9); experiment: EMSA; conditions: EMSA: 10 nM biotin-RNA, 50 mM Tris-HCl pH 7.5, 100 mM KCl, 2.5% glycerol, 0.05% NP-40, 4 mM EDTA, 1 mM DTT, RiboLock 2 U, 37 C 30 min; 8% native TBE PAGE at …; recombinant protein; protein details: His tag (Ni-NTA, pET28a); label: 3' biotin

| Sequence | binding result |
| --- | --- |
| CGGCGGGAGGCGGGGGUGGCAGUGUCUGCGCGCACA [Elfn2 3' tailed RG4 sequence2] | binds |
| CGGCGGGAGGCGGGGGUGGC [Elfn2 RG4 only sequence2] | binds |
| GGGGAGGGUCCGGGUGGGACCGGUGGUGUUUUUU [3' tailed RG4 sequence] | binds |
| CGGCGGAGGGGCGGGAGGGU [Elfn2 RG4 only sequence1] | binds |
| GGGGAGGGUCCGGGUGGGA [RG4 only sequence] | binds |
| CGGCGGAGGGGCGGGAGGGUCUGCAGCGGAGAGAGG [Elfn2 3' tailed RG4 sequence1] | binds |

The exact form of at least one protein or probe is not confirmed. At least one verdict rests on a figure or table, not on a statement of the authors.
